From publication PMC7819943, “Rice protein-binding microarrays: a tool to detect cis-acting elements near promoter regions in rice”
This is one part of the list.

Amino acid sequences for entries named in this document (tags omitted).
UniProt Q0JBA9, entry or part of it: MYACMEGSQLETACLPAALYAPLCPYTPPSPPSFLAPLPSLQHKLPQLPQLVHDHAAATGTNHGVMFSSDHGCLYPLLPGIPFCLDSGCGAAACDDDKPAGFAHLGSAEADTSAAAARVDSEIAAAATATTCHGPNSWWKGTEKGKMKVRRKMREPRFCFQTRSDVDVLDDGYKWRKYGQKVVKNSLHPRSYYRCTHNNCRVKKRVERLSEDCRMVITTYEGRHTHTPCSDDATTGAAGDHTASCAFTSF

molecular target: OsWRKY34 (Oryza sativa, UniProt Q0JBA9 1-250); assay: protein-binding microarray (RPBM); PBS, 2% BSA, 51.3 ng/ul salmon testes DNA, 50 uM zinc acetate, 200 nM TF, 25 C, 1 h; high values mean tight binding; conditions: protein: recombinant; tags: N-terminal polyhistidine and DsRed monomer fusion (pET32a); label: CyDye5-dUTP incorporated in the synthesized complementary strand; 3' TTTTT single-stranded linker to array surface; dsDNA, one strand shown
Outline: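 The binding signal is fluorescence intensity per feature, in arbitrary units, read on an Axon 4000B scanner. Polyhistidine- and DsRed-tagged transcription factors (N-terminal fusions) from E. coli BL21-CodonPlus were purified on Ni–NTA and applied at 200 nM for 1 h at 25 °C to a double-stranded, BSA-blocked custom Agilent array in buffer with 50 µM zinc acetate.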

Sequence	binding signal
ATATACTTAGGTCCTGTTTGGGGCAGTTTAAAATTTTGGGCGGAGTCACCTAGTGCAG	9370 fluorescence intensity (a.u.)
CCTAGACTTCCTCTCTCTCGCGTCGCGCTCGCCTTCGCCTCGGAGTCACCTAGTGCAG	8820 fluorescence intensity (a.u.)
CCGGTCGTTTCCCGTATTGTTGGCATATATGTACACGGAGCGGAGTCACCTAGTGCAG	8030 fluorescence intensity (a.u.)
CTGCTTGTGCATGTGTGACACTTTTCTTTATTGAGCAAGCCGGAGTCACCTAGTGCAG	9520 fluorescence intensity (a.u.)
ACCACCCCACAACCCCACCGTGCACCACGCCCACCACGTGCGGAGTCACCTAGTGCAG	8540 fluorescence intensity (a.u.)
AACGGGTTGTTTTGGTTTTGCTGATGTACGACATATCAAGCGGAGTCACCTAGTGCAG	9200 fluorescence intensity (a.u.)
TCCCACGTCTCCGCTTCCAATCCAATCGAACTCAAATCAACGGAGTCACCTAGTGCAG	8480 fluorescence intensity (a.u.)
GGCTGGTGGTTTGTTGATGTGGAGCCCGGCCCGGCCGCACCGGAGTCACCTAGTGCAG	11900 fluorescence intensity (a.u.)
TAGGGGTGGGCATTCGGTCTAACTGAAAATTTCGGTCTCGCGGAGTCACCTAGTGCAG	13500 fluorescence intensity (a.u.)
TTTGTGCTGTGTTGTTTCTCTGTATCAATTGACACATTCTCGGAGTCACCTAGTGCAG	8040 fluorescence intensity (a.u.)
CATCTATGACCCATTTTTTTTTATTTGACTGATACCCATCCGGAGTCACCTAGTGCAG	9760 fluorescence intensity (a.u.)
CGGTCTATCTGGGGTGAACTTTCTCCTAACATCGGTAATTCGGAGTCACCTAGTGCAG	8500 fluorescence intensity (a.u.)
ATCCTTTTGCTTATGGTTATGCTTATCTGTATGGCTTATTCGGAGTCACCTAGTGCAG	13000 fluorescence intensity (a.u.)
TCCGCGGCCGCTCCGCCACTTCCGTCCAGAGACGCGCCTCCGGAGTCACCTAGTGCAG	9700 fluorescence intensity (a.u.)
ATCAACTCCTATATCTCATAAAAAAATGTTTTTTTCCCCTCGGAGTCACCTAGTGCAG	8480 fluorescence intensity (a.u.)
TACTTCAACCACCCCTACGCATTCAACTCCATTCTACTCTCGGAGTCACCTAGTGCAG	9460 fluorescence intensity (a.u.)
GCATTTGGTTGTTGCTGTGGACTCTGGATGATTTTTTTTACGGAGTCACCTAGTGCAG	14000 fluorescence intensity (a.u.)
ACTATTTTTTTCTCTTTTCAGTCTTCAAATATTATGCTACCGGAGTCACCTAGTGCAG	10700 fluorescence intensity (a.u.)
TCAACGGTTTCAGGCCTACTTCTCTTCCTCACGCGCGCTGCGGAGTCACCTAGTGCAG	8710 fluorescence intensity (a.u.)
TCCTCGCCACCGCCGCCGTGTTCCTCTTCCACCGCCGGACCGGAGTCACCTAGTGCAG	8500 fluorescence intensity (a.u.)
GCTTAATTACATGGGAGAGGCTTTGTTTCTTGTTTATTTTCGGAGTCACCTAGTGCAG	8760 fluorescence intensity (a.u.)

Sequence	binding signal
GGGGAGGGCAGCGGCGGCGGCGAGGCACGTAGTGCTTTTTCGGAGTCACCTAGTGCAG	8050 fluorescence intensity (a.u.)
TTGACTAATTTTCTGGTTACGCATTTCGATCAGGTTTCATCGGAGTCACCTAGTGCAG	8240 fluorescence intensity (a.u.)
TATTTGTTCGTGACTCTACACTTCTTTTGCCTATTCATCTCGGAGTCACCTAGTGCAG	14200 fluorescence intensity (a.u.)
GATTTTTTCGGACTTGGTCTCGGTCTTTTTGTTTGGTTATCGGAGTCACCTAGTGCAG	10200 fluorescence intensity (a.u.)
GGGGTGAGTGCGCATGCGTAGTGAGCTTCTGTGTTTGTTCCGGAGTCACCTAGTGCAG	8600 fluorescence intensity (a.u.)
ATTCTTAGGTTCGCTCGCTACTACTACAAAATCAATTTTTCGGAGTCACCTAGTGCAG	8080 fluorescence intensity (a.u.)
ATGTCCCTTTCGGGTTGGGTTGCATTTGAGGGAGGCTTCACGGAGTCACCTAGTGCAG	13700 fluorescence intensity (a.u.)
GCATGGAGTTTTATTGTTTTAATTTGATGTAAATTATCTACGGAGTCACCTAGTGCAG	9320 fluorescence intensity (a.u.)
CCGGTATCCACTGCGTGCGTGCGTTGCCTGCTAGAATCCCCGGAGTCACCTAGTGCAG	9490 fluorescence intensity (a.u.)
GTGGTGACAATTTAGCATATGCATAGTTTCTGTGTGGAACCGGAGTCACCTAGTGCAG	8030 fluorescence intensity (a.u.)
TGTCAGGTCAAATCGGGGAGGCGGGGTGCGTACCAACGGTCGGAGTCACCTAGTGCAG	11900 fluorescence intensity (a.u.)
TGCCATTCTGTCGGTCTCTCTCAAGTCTCAACACATAAACCGGAGTCACCTAGTGCAG	10200 fluorescence intensity (a.u.)
ACTGCAATTCTTTGCAATTGTCTTTGCCTTTGTTCAGCCTCGGAGTCACCTAGTGCAG	8800 fluorescence intensity (a.u.)
CTTGGCTGGCATACATGGCGAGACTGCTTCCAAGAACCTCCGGAGTCACCTAGTGCAG	8190 fluorescence intensity (a.u.)
CAAATGTTGACACCTAGCTCTCACCATGCCACCTCAACTTCGGAGTCACCTAGTGCAG	8290 fluorescence intensity (a.u.)
ACACATGCATGCTGCTTTAGTCGGTTTTTTCTCTCGACTACGGAGTCACCTAGTGCAG	8330 fluorescence intensity (a.u.)
ACATCTTGTCCTCATGCCTTGCCTTTCCAACACCTTAATTCGGAGTCACCTAGTGCAG	8740 fluorescence intensity (a.u.)
TCGCAGCTCCTCTTCCCCGCCTCCTCCGTTGACCGCCACCCGGAGTCACCTAGTGCAG	12500 fluorescence intensity (a.u.)
CACACACCCGTTTTGTTCTTCAGCTGGTAGTTGTTGCAAACGGAGTCACCTAGTGCAG	9080 fluorescence intensity (a.u.)
ACTCCACTCCTAATCGCTCTTGGTCAAGACCCTGAGATCTCGGAGTCACCTAGTGCAG	8220 fluorescence intensity (a.u.)
TGCATTATATTCACGACCATGCCACATATGTAGGCACAACCGGAGTCACCTAGTGCAG	10300 fluorescence intensity (a.u.)

Quoted at random: two entries already listed.
Sequence	binding signal
TATTTGTTCGTGACTCTACACTTCTTTTGCCTATTCATCTCGGAGTCACCTAGTGCAG	14200 fluorescence intensity (a.u.)
ACTGCAATTCTTTGCAATTGTCTTTGCCTTTGTTCAGCCTCGGAGTCACCTAGTGCAG	8800 fluorescence intensity (a.u.)

Part of the list above, with bars between the fields:
Sequence | binding signal
ACACATGCATGCTGCTTTAGTCGGTTTTTTCTCTCGACTACGGAGTCACCTAGTGCAG | 8330 fluorescence intensity (a.u.)
ACATCTTGTCCTCATGCCTTGCCTTTCCAACACCTTAATTCGGAGTCACCTAGTGCAG | 8740 fluorescence intensity (a.u.)

(list continues)

Sequence	binding signal
TTCCCTGCCATTTACGCACTGTATTATTTTTCCTGACCAACGGAGTCACCTAGTGCAG	8060 fluorescence intensity (a.u.)
CTTCTTCTTCGATCCTTTCACTCCGTGTAGTTCTTGATTTCGGAGTCACCTAGTGCAG	9580 fluorescence intensity (a.u.)
CTCAACTATCTTAATACAATTGGTTGGCTGTCCTTCGGCCCGGAGTCACCTAGTGCAG	8700 fluorescence intensity (a.u.)
GAAACCAACAGCTCAGAATTTCTCAGTCTTCTCGTTCACACGGAGTCACCTAGTGCAG	9340 fluorescence intensity (a.u.)
TCTTCTAACTGTACAATTAGTTTTTCTTTTTATTTATATTCGGAGTCACCTAGTGCAG	8860 fluorescence intensity (a.u.)
TTTGTGGGGCTCTCTCTTTGATGCTTTCTTCTCTTTAGCTCGGAGTCACCTAGTGCAG	10000 fluorescence intensity (a.u.)
TATCTGTTTTTCTTTTCAATTTTTCAGGTGTGGGATTCGTCGGAGTCACCTAGTGCAG	9080 fluorescence intensity (a.u.)
AGCAACTTAAAGTTTGTCAACACTATCACTATGCATATTCCGGAGTCACCTAGTGCAG	8870 fluorescence intensity (a.u.)
TGCCCAGCACGAATATTGCAGCAGCCGTCCCTGTCCTTTTCGGAGTCACCTAGTGCAG	8700 fluorescence intensity (a.u.)
GTAGCGTCCTTATGTTTGCTTTGTGTCCGCATCGATACCGCGGAGTCACCTAGTGCAG	11400 fluorescence intensity (a.u.)
ATATTTTCTTAATACAATCTTCGTTCATTTGACACTGATTCGGAGTCACCTAGTGCAG	8520 fluorescence intensity (a.u.)
ATCCTCGTACCAGCGTACCTCAATACCCTCTATATCCGATCGGAGTCACCTAGTGCAG	11800 fluorescence intensity (a.u.)
ATTTGGCCCAACGCCGCCTCGCTACAGAGACTATCTATAACGGAGTCACCTAGTGCAG	8510 fluorescence intensity (a.u.)
ATCAAGCCAATCGTACACCATGTTTTCCTATCTACTGTAGCGGAGTCACCTAGTGCAG	12400 fluorescence intensity (a.u.)
CCCCTAAACCGCACCATTATACTCCAGCTGCAGTCTTTCCCGGAGTCACCTAGTGCAG	9710 fluorescence intensity (a.u.)
TCCCCGTTTCGCCGCTTTCCGCTCATCTCGCGTATAAAAACGGAGTCACCTAGTGCAG	12600 fluorescence intensity (a.u.)
GATCGACTACGATAGTTCAGAGGGTATTTCGTACTTTTTCCGGAGTCACCTAGTGCAG	8060 fluorescence intensity (a.u.)
GTGTGTTTGGAATGAGAAATGTGGGGTGGGATTGGAATTACGGAGTCACCTAGTGCAG	10700 fluorescence intensity (a.u.)
TTAATAGATGACGCCGTTGATTTTTTCTCACATGTTTGACCGGAGTCACCTAGTGCAG	11600 fluorescence intensity (a.u.)
GCTGCCTGCGCGCCGCCGCCACCGCCCGACGCCGCGGCGTCGGAGTCACCTAGTGCAG	8520 fluorescence intensity (a.u.)
TCGATGACCCTGGCTGCTGGCTGCTTTGCCTCTTTTCTAGCGGAGTCACCTAGTGCAG	8630 fluorescence intensity (a.u.)

Sequence	binding signal
GCTTCGAGCCTTCCTTGTCCAGCGTGGGGCGGGGCACTCCCGGAGTCACCTAGTGCAG	11900 fluorescence intensity (a.u.)
TGCTTTACGCCCATCACCTTGGCACATCTGGATTTGAATCCGGAGTCACCTAGTGCAG	9160 fluorescence intensity (a.u.)
TCCCGGCCCGTCTGACCAGTCAACGTCACTCTACAGAGCTCGGAGTCACCTAGTGCAG	11000 fluorescence intensity (a.u.)
GCGTCGCCTGGGCGCCCATCCGCTCTGCCGCCGCGCCGCTCGGAGTCACCTAGTGCAG	8720 fluorescence intensity (a.u.)
CTTAAGAATCGTTCGCTTCAGCTGACCTCTCTCCGCCCCGCGGAGTCACCTAGTGCAG	8410 fluorescence intensity (a.u.)
GGGTGGAGGAGGTGGGGAGGCCGGCGAGACTCATGTGCGGCGGAGTCACCTAGTGCAG	13100 fluorescence intensity (a.u.)
AAGTGGGTGAGTCCAATAGGTGTGCACGTGAGGGGAGGGGCGGAGTCACCTAGTGCAG	10500 fluorescence intensity (a.u.)
CTCTCCCTCTCGCGTGTCCATTTCACGAATTCCTCGTCTCCGGAGTCACCTAGTGCAG	11100 fluorescence intensity (a.u.)
AGGAAGCCACCCCATCGTCTTCAACCTCTCGATTCCGCTCCGGAGTCACCTAGTGCAG	10400 fluorescence intensity (a.u.)
TATTTAAGTTCACCGCGGGTCACCACACCAGCTCACACACCGGAGTCACCTAGTGCAG	9990 fluorescence intensity (a.u.)
CCTCTCGCCACCGTTGTTTGCCTTTGTCAATCTCCACCACCGGAGTCACCTAGTGCAG	10400 fluorescence intensity (a.u.)
TATATATATATATATATATATATATGAAAGTTTTATTCATCGGAGTCACCTAGTGCAG	8280 fluorescence intensity (a.u.)
ATAGTTTTTTTTTCTCGCCGGCGACAGTGAGCGCCCTTCTCGGAGTCACCTAGTGCAG	8670 fluorescence intensity (a.u.)
GACTTGCCTGTATTATACTACTAACATTTGGTTGACTTGGCGGAGTCACCTAGTGCAG	8780 fluorescence intensity (a.u.)
AAAAATAATTTGTGGACCAAAAACCGACCGCGCGACTTATCGGAGTCACCTAGTGCAG	8160 fluorescence intensity (a.u.)
ACCCACAGTCCCACACCGTCCGTCCCCTTTTATCTCATGGCGGAGTCACCTAGTGCAG	9120 fluorescence intensity (a.u.)
CACTGACACTTACATCGATGACCTATTTATAAATATATTTCGGAGTCACCTAGTGCAG	8140 fluorescence intensity (a.u.)
GCCACGAGTTCCACGGCCGCGGCGTCGTCGTCGTCGTCGTCGGAGTCACCTAGTGCAG	8090 fluorescence intensity (a.u.)
TTTCACCACCCCGGATCGACGCATGAATCTAACGCGAGCACGGAGTCACCTAGTGCAG	8320 fluorescence intensity (a.u.)
AAGTGCAGTCTTGAATTATCTCTCGATCATGCAGTTCTTGCGGAGTCACCTAGTGCAG	8940 fluorescence intensity (a.u.)
TCCCCGGCCGTCGCGCTCCGCTTTTCCTCCGCCGCCGCCTCGGAGTCACCTAGTGCAG	8200 fluorescence intensity (a.u.)
